{"source": "PubChem BioAssay AID588497", "about": "(NMMLSC, 2011)", "note": "About 780 (0.22%) of roughly 360,000 compounds were called active. Inconclusive means that the source gave no clear call. Such entries were picked first, then a sample of the others. Rule as the data show it: active = inhibition above about 35% (passing the limit was not always enough); inconclusive = no clear call, values can overlap the other calls."}
{"system": "Botulinum neurotoxin type F light chain protease (Clostridium botulinum)", "test": "BoNT/F light chain protease inhibitors, primary screen, biochemical, flow cytometry, MLPCN library (AID 588497); also: plate controls were buffer without enzyme for full effect and enzyme alone for no effect", "settings": "Multiplex microsphere protease cleavage assay, at 10 µM, stronger effect = higher value"}
{"smiles": "CCOC(=O)CSc1nc2c(c(=O)[nH]c(=O)n2C)n1CCCc1ccccc1", "inhibition": "inactive: -2.7%"}
{"smiles": "CCOc1ccc(S(=O)(=O)N2CC(=O)Nc3ccccc32)cc1", "inhibition": "inconclusive: -16.4%"}
{"smiles": "C#CC1(OC(=O)c2ccccc2)CC(C)N(C)CC1C", "note": "(centres undefined)", "inhibition": "inconclusive: 15.7%"}
{"smiles": "O=C(CCN1CCCCC1)Nc1cccc(Br)c1", "inhibition": "inconclusive: 8.4%"}
{"smiles": "c1ccc(-c2csc(Nc3ccccn3)n2)cc1", "inhibition": "inconclusive: -15.1%"}
{"smiles": "CCCN(CCC)CCNC(=O)c1cn(C)c(=O)c2c1c1ccccc1n2C", "inhibition": "inconclusive: 14%"}
{"smiles": "CC1=CC(c2ccc(Cl)cc2)n2nc(NC(=O)CCCC(=O)O)nc2N1", "note": "(centres undefined)", "inhibition": "inconclusive: -19.4%"}
{"smiles": "COCCn1c(N)c(Sc2ccccc2)c(=O)[nH]c1=O", "inhibition": "inactive: -2.5%"}
{"smiles": "COc1ccc(CNCCC(c2ccccc2)c2ccc(OC(C)C)cc2)cc1OC", "note": "(centres undefined)", "inhibition": "inconclusive: -30.5%"}
{"smiles": "CC1CCN(C(=O)c2cc3ccccc3o2)CC1", "inhibition": "inconclusive: 8.5%"}
{"smiles": "S=c1[nH]nc2n1CCCN2", "inhibition": "inconclusive: 105%"}
{"smiles": "OCc1cccc[n+]1Cc1ccccc1", "inhibition": "inconclusive: -20.8%"}
{"smiles": "COc1ccc(CN(Cc2cccn2C)S(=O)(=O)c2ccccc2)cc1", "inhibition": "inconclusive: -120%"}
{"smiles": "Cc1ccc(C(CC(=O)N2CCCCC2)c2ccccc2)c(O)c1C", "note": "(centres undefined)", "inhibition": "active: 128%"}
{"smiles": "CCCSc1nsc(NC(=O)Nc2ccc(F)cc2F)n1", "inhibition": "inconclusive: 23.3%"}
{"smiles": "Oc1cccc2ccc(/C=C/c3ccccc3Cl)nc12", "inhibition": "inconclusive: 17.1%"}
{"smiles": "Cc1nn(CC#N)c(=O)n1-c1ccccc1", "inhibition": "inactive: -19.5%"}
{"smiles": "O=C(/C=C/c1ccccc1)Nc1ccc(C(=O)N2CCCCC2)cc1", "inhibition": "inactive: -0.4%"}
{"smiles": "C/C(=N\\NC(=O)NC1CCCCC1)c1ccc(Cl)s1", "inhibition": "inconclusive: 0.9%"}
{"smiles": "COc1cccc(-c2c(NC(C)=O)n(C)c3ccccc3c2=O)c1", "inhibition": "inconclusive: -1.3%"}
{"smiles": "COc1ccc(C2=NC(C)(C)Cc3cc(OC)c(OC)cc32)cc1", "inhibition": "inconclusive: -29%"}
{"smiles": "Cc1ccc([C@@H]2CC(=O)[C@@H]3CN(S(=O)(=O)c4ccc(C)cc4)[C@H](c4ccc(Cl)cc4)C[C@@H]3N2S(=O)(=O)c2ccc(C)cc2)cc1", "inhibition": "inactive: 4.5%"}
{"smiles": "C1=C(c2ccccc2)Nc2ncnn2C1c1ccccc1", "note": "(centres undefined)", "inhibition": "inactive: -5.5%"}
{"smiles": "COc1cccc(/C=N\\NC(=O)c2cc(OCC(F)(F)F)ccc2OCC(F)(F)F)c1", "inhibition": "inconclusive: -17.4%"}
{"smiles": "O=C(CCN1C(=O)c2ccccc2C1=O)NCc1ccc(Cl)cc1", "inhibition": "inactive: 9%"}
{"smiles": "Cc1cc(C)c2c(c1)/C(=c1/sc3n(c1=O)CN(c1ccccc1)CN=3)C(=O)N2", "inhibition": "inconclusive: 29.2%"}
{"smiles": "Cc1ccc(-c2ncns2)cc1", "inhibition": "inconclusive: -33.2%"}
{"smiles": "Cc1nnc(NC(=O)c2ccc(Br)o2)s1", "inhibition": "inconclusive: -7.9%"}
{"smiles": "CC1CN(c2oc(Cc3cccc4ccccc34)nc2C#N)CC(C)O1", "note": "(centres undefined)", "inhibition": "inactive: -5.7%"}
{"smiles": "COc1ccc(OCCSc2nnc(CCNC(=O)c3ccc(OC)cc3)n2C)cc1", "inhibition": "inactive: 3.3%"}
{"smiles": "c1csc(-c2nc(CN3CCSCC3)cs2)c1", "inhibition": "inconclusive: 29%"}
{"smiles": "CC(=O)N/N=C(\\N)c1nonc1N", "inhibition": "inconclusive: -56.5%"}
{"smiles": "Cc1c(N2CCCC2)cc2c(c1NC(=O)c1ccccc1Cl)C(C)(C)CC2(C)C", "inhibition": "inactive: 2.9%"}
{"smiles": "O=C(NCCOc1nc(N2CCOCC2)nc(N2CCOCC2)n1)Nc1ccc(Cl)cc1", "inhibition": "inactive: -0.2%"}
{"smiles": "Cc1nc(-c2ccccc2)sc1-c1nnc(C2CC2)o1", "inhibition": "inconclusive: 30%"}
{"smiles": "O=C(c1ccccc1)n1ccc(-c2cccs2)n1", "inhibition": "inconclusive: 8.5%"}
{"smiles": "COc1ccc(-c2nn(CCC#N)cc2C(=O)Nc2ccc(C(C)=O)cc2)cc1[N+](=O)[O-]", "inhibition": "inconclusive: -15.5%"}
{"smiles": "CCCCCCOc1ccc(/C=C/C(=O)N2CCOCC2)cc1OC", "inhibition": "inconclusive: -51.6%"}
{"smiles": "COc1ccc(O)c(CN2CCN(CCCc3ccccc3)C(CCO)C2)c1", "note": "(centres undefined)", "inhibition": "inconclusive: 21.1%"}
{"smiles": "COc1ccc(C2=NN(c3ccccc3)C(c3ccc(OC)c(OC)c3)C2)cc1", "note": "(centres undefined)", "inhibition": "inconclusive: 1%"}
{"smiles": "O=C(NCCc1ccccc1)c1cc2sccc2n1Cc1ccccc1", "inhibition": "inconclusive: -50.2%"}
{"smiles": "Cc1ccc(NC(=O)CSc2nc(=O)n(CCN3CCOCC3)c3c2CCCC3)cc1", "inhibition": "inconclusive: -1.5%"}
{"smiles": "CCOc1ccc(N2C(=O)CC(SC(=NC)Nc3ccc4c(c3)OCO4)C2=O)cc1", "note": "(centres undefined)", "inhibition": "inconclusive: -3.1%"}
{"smiles": "CC(C)n1c(C(F)(F)F)nc2cc(C(=O)N3CCC(O)CC3)ccc21", "inhibition": "inconclusive: 119%"}
{"smiles": "CCOC(=O)Cn1nc(C)n(-c2c(C)cccc2C)c1=O", "inhibition": "inactive: -2.4%"}
{"smiles": "COc1ccc(C(=O)NCC(=O)N/N=C/c2c(C)[nH]c3ccccc23)cc1OC", "inhibition": "inconclusive: 129%"}
{"smiles": "O=C(c1ccco1)N1N=C(c2cccs2)CC1c1ccc(F)cc1", "note": "(centres undefined)", "inhibition": "inactive: -10.4%"}
{"smiles": "CCOC(=O)c1csc(N)c1-c1ccc([N+](=O)[O-])cc1", "inhibition": "inconclusive: -16%"}
{"smiles": "Cc1cccc(NC(=S)N=Nc2c(O)n(CN3CCOCC3)c3ccccc23)c1C", "inhibition": "inactive: -8.1%"}
{"smiles": "CN1CCN(c2ccc(CNS(=O)(=O)Cc3ccc(Cl)cc3)cc2)CC1", "inhibition": "inconclusive: -68%"}
{"smiles": "Cn1cc(Br)c(-c2cccc(NC(=O)CCC(=O)O)c2)n1", "inhibition": "inconclusive: 64.6%"}
{"smiles": "Cc1oc(S(=O)(=O)N2CCOCC2)cc1C(=O)Nc1ccc(F)cc1", "inhibition": "inconclusive: 39.2%"}
{"smiles": "CCc1ccc(S(=O)(=O)N2CCN(c3ccccc3OC)CC2)cc1", "inhibition": "inconclusive: -1.8%"}
{"smiles": "COc1ccc(C(c2c(C)[nH][nH]c2=O)c2c(C)[nH][nH]c2=O)cc1Br", "inhibition": "inconclusive: -20.1%"}
{"smiles": "Cc1cccnc1NC(=O)CCCNC(=O)c1ccc(Cl)cc1", "inhibition": "inconclusive: 1.4%"}
{"smiles": "COC(=O)C(=C/C=C/c1ccco1)C(=O)OC", "inhibition": "inconclusive: -1.4%"}
{"smiles": "COc1ccc(C(=O)N2CCN(Cc3ccccn3)CC2)cc1", "inhibition": "inconclusive: -7.6%"}
{"smiles": "CCOC(=O)c1[nH]c(C)c(/C(O)=C2\\C(=O)C(=O)N(CCCN3CCOCC3)C2c2cccs2)c1C", "note": "(centres undefined)", "inhibition": "inconclusive: 26.5%"}
{"smiles": "CCOC(=O)C1C(=O)NC(N2CCN(c3ccccc3)CC2)=NC1c1ccccc1", "note": "(centres undefined)", "inhibition": "inactive: -2.2%"}
